Laboratory results published in paper PMC6033357.

By UniProt entry, the sequences of proteins in these tests, tags left out. Where a name states a change or a piece, a line headed by the entry shows the natural chain unless it says otherwise.
UniProt Q86X55: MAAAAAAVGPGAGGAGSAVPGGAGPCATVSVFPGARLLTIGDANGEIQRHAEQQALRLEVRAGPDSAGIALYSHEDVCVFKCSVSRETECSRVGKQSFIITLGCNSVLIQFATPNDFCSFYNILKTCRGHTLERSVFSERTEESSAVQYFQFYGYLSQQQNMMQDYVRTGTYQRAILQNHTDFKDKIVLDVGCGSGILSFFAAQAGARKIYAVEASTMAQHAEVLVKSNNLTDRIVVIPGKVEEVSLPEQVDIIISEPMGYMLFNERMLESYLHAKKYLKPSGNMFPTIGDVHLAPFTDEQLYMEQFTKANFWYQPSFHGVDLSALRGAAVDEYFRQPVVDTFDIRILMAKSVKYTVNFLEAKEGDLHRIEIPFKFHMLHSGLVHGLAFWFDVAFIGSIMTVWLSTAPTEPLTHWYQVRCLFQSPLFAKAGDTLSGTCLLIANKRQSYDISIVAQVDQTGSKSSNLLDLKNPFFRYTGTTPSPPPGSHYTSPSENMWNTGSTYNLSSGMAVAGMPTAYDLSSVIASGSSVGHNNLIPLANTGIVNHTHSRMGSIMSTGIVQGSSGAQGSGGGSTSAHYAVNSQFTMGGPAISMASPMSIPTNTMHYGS

Molecular target: T1, Nucleus accumbens-associated protein 1 (NAC1), endogenous (human (endogenous in HeLa, ovarian cancer cell lines and HEK293T)) (UniProt Q96RE7)
T1 sequence: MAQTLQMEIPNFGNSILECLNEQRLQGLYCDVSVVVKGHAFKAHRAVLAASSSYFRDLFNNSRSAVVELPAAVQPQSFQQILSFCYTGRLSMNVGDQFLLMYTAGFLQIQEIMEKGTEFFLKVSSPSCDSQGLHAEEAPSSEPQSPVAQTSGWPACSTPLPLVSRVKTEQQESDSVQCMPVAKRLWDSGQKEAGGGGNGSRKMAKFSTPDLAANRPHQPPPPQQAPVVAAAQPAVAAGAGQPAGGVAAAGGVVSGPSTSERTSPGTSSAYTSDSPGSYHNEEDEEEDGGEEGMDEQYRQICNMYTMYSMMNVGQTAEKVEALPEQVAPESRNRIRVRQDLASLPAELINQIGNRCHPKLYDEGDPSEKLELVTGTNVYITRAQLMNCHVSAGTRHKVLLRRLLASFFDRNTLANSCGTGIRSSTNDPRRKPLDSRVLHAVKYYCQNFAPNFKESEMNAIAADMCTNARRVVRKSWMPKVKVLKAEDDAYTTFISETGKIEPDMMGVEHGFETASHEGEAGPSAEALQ
Test: co-IP; FLAG-tagged wild-type or truncated CARM1 expressed in HEK293T cells, immunoprecipitated with anti-NAC1 antibody (endogenous NAC1), Western blotting

Question: Which binding does the source give for “FLAG-tagged CARM1-D3 (residues 135-608, lacking the amino-terminal domain) (from UniProt Q86X55) (domain or fragment)” here?
Answer: Its binding is “binds”.

Results are given in words; binding and its absence hold for the method and conditions named. In cells and extracts the contact can be indirect. A result given as binding can be weak or reduced; the word gives no strength.
